# Measurements from paper doi:10.1101/2021.11.04.467353.
# The chains behind the UniProt entries cited, without tags or fusion partners.
# UniProt A0JNW5: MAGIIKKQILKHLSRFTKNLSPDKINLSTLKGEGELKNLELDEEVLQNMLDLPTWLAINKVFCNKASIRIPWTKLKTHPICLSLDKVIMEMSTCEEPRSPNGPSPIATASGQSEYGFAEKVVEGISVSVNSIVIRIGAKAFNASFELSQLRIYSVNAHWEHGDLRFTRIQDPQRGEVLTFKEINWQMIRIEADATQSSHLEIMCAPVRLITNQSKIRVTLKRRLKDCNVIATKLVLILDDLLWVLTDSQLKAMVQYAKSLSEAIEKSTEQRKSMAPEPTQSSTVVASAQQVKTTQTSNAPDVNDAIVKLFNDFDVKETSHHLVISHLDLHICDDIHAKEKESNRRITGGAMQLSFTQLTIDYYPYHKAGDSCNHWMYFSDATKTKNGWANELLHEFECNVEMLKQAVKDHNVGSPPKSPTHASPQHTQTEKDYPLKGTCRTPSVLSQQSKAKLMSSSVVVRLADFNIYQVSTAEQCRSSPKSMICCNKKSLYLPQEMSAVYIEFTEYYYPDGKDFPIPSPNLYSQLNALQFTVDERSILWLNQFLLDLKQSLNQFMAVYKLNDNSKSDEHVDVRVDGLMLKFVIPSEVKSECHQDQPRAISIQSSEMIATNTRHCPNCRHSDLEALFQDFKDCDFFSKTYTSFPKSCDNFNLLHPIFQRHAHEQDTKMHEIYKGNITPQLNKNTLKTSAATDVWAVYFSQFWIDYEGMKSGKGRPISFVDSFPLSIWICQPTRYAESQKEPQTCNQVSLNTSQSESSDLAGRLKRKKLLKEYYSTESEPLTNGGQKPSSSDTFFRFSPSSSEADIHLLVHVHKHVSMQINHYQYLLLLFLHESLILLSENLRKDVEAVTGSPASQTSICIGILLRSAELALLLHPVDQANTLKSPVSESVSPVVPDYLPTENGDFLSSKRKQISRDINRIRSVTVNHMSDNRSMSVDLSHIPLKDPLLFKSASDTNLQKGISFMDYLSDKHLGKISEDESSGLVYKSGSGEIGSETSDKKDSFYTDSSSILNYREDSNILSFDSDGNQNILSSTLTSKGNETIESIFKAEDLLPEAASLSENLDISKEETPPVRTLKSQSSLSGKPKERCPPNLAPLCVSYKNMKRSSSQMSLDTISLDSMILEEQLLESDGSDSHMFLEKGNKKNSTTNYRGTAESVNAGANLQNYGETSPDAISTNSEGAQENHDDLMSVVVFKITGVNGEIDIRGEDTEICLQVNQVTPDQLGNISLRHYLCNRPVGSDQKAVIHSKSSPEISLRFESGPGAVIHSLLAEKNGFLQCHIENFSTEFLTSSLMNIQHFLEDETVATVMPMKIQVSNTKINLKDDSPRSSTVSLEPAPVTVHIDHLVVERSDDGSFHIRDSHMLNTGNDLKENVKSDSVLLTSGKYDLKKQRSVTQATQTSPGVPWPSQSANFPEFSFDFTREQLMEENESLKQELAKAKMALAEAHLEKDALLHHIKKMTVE
# UniProt P63168: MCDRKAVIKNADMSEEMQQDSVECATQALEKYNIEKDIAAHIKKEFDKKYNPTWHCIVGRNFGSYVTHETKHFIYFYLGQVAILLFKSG
# No constants are given. Whether binding was seen depends on the method and setting. Binding seen in cells or lysates may run through a third protein. Here binding means that the protein was enriched with, or labelled near, the bait; the list need not be complete.
# Molecular target: full-length, N-terminally FLAG-tagged human SHIP164 (3xFLAG-SHIP164) (human) (UniProt A0JNW5)
# Test: affinity purification with mass spectrometry
substance,measurement,value
dynein light chain 1 (DYNLL1) (from UniProt P63168 1-89),binding,binds
